The text below walks through data of publication PMC7924263.

Sequences of proteins named here, by UniProt entry; tags and fusion partners are left off.
UniProt P0DTD2: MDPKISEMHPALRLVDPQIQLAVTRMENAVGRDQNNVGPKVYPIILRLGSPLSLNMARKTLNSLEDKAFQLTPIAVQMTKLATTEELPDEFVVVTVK

Assay in all cases: proximity labelling
The target of test [1] is SARS-CoV-2 ORF9b, HA-BASU fusion (SARS-CoV-2) (UniProt P0DTD2).
Test [2] has as its target SARS-CoV-2 ORF6, HA-BASU fusion (SARS-CoV-2) (UniProt P0DTC6).
In test [3] the target is T1, SARS-CoV-2 ORF6, HA-BASU fusion (SARS-CoV-2), P0DTC6.
T1 chain: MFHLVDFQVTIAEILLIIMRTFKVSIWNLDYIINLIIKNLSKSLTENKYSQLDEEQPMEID
As to conditions: remark: other sources report otherwise.

In test [4] the target is SARS-CoV-2 ORF9b, HA-BASU fusion (SARS-CoV-2), P0DTD2. The note with it: remark: other sources report otherwise.

These are yes or no findings as the source states them, for the method shown. Binding seen in cells or lysates may run through a third protein. Here binding means that the protein was enriched with, or labelled near, the bait; the list need not be complete. For some of these results: No binding means not detected with the bait. For some of these results: Where a sequence is shown, tags or fusion partners need not be part of it.

B1: RaeI (protein, UniProt P78406 1-368)
chain: MSLFGTTSGFGTSGTSMFGSATTDNHNPMKDIEVTSSPDDSIGCLSFSPPTLPGNFLIAGSWANDVRCWEVQDSGQTIPKAQQMHTGPVLDVCWSDDGSKVFTASCDKTAKMWDLSSNQAIQIAQHDAPVKTIHWIKAPNYSCVMTGSWDKTLKFWDTRSSNPMMVLQLPERCYCADVIYPMAVVATAERGLIVYQLENQPSEFRRIESPLKHQHRCVAIFKDKQNKPTGFALGSIEGRVAIHYINPPNPAKDNFTFKCHRSNGTNTSAPQDIYAVNGIAFHPVHGTLATVGSDGRFSFWDKDARTKLKTSEQLDQPISACCFNHNGNIFAYASSYDWSKGHEFYNPQKKNYIFLRNAAEELKPRNKK
Regarding B1, the binding result in test [1] is “no binding”; in test [2], “binds”.

B2: Nup98, P52948 1-880 (protein)
chain: MFNKSFGTPFGGGTGGFGTTSTFGQNTGFGTTSGGAFGTSAFGSSNNTGGLFGNSQTKPGGLFGTSSFSQPATSTSTGFGFGTSTGTANTLFGTASTGTSLFSSQNNAFAQNKPTGFGNFGTSTSSGGLFGTTNTTSNPFGSTSGSLFGPSSFTAAPTGTTIKFNPPTGTDTMVKAGVSTNISTKHQCITAMKEYESKSLEELRLEDYQANRKGPQNQVGAGTTTGLFGSSPATSSATGLFSSSTTNSGFAYGQNKTAFGTSTTGFGTNPGGLFGQQNQQTTSLFSKPFGQATTTQNTGFSFGNTSTIGQPSTNTMGLFGVTQASQPGGLFGTATNTSTGTAFGTGTGLFGQTNTGFGAVGSTLFGNNKLTTFGSSTTSAPSFGTTSGGLFGNKPTLTLGTNTNTSNFGFGTNTSGNSIFGSKPAPGTLGTGLGAGFGTALGAGQASLFGNNQPKIGGPLGTGAFGAPGFNTTTATLGFGAPQAPVALTDPNASAAQQAVLQQHINSLTYSPFGDSPLFRNPMSDPKKKEERLKPTNPAAQKALTTPTHYKLTPRPATRVRPKALQTTGTAKSHLFDGLDDDEPSLANGAFMPKKSIKKLVLKNLNNSNLFSPVNRDSENLASPSEYPENGERFSFLSKPVDENHQQDGDEDSLVSHFYTNPIAKPIPQTPESAGNKHSNSNSVDDTIVALNMRAALRNGLEGSSEETSFHDESLQDDREEIENNSYHMHPAGIILTKVGYYTIPSMDDLAKITNEKGECIVSDFTIGRKGYGSIYFEGDVNLTNLNLDDIVHIRRKEVVVYLDDNQKPPVGEGLNRKAEVTLDGVWPTDKTSRCLIKSPDRLADINYEGRLEAVSRKQGAQFKEYRPETGSWVFKVSHF
B2: the binding entry in test [3] is reported as “binds”.

B3: Mitochondrial Activation of Viral Signaling (MAVS), Q7Z434 1-540 (protein)
chain: MPFAEDKTYKYICRNFSNFCNVDVVEILPYLPCLTARDQDRLRATCTLSGNRDTLWHLFNTLQRRPGWVEYFIAALRGCELVDLADEVASVYQSYQPRTSDRPPDPLEPPSLPAERPGPPTPAAAHSIPYNSCREKEPSYPMPVQETQAPESPGENSEQALQTLSPRAIPRNPDGGPLESSSDLAALSPLTSSGHQEQDTELGSTHTAGATSSLTPSRGPVSPSVSFQPLARSTPRASRLPGPTGSVVSTGTSFSSSSPGLASAGAAEGKQGAESDQAEPIICSSGAEAPANSLPSKVPTTLMPVNTVALKVPANPASVSTVPSKLPTSSKPPGAVPSNALTNPAPSKLPINSTRAGMVPSKVPTSMVLTKVSASTVPTDGSSRNEETPAAPTPAGATGGSSAWLDSSSENRGLGSELSKPGVLASQVDSPFSGCFEDLAISASTSLGMGPCHGPEENEYKSEGTFGIHVAENPSIQLLEGNPGPPADPDGGPRPQADRKFQEREVPCHRPSPGALWLQVAVTGVLVVTLLVVLYRRRLH
For B3, in test [4], the binding result is “binds”.
